Reference: patent publication US20110281289A1, “QUANTIFICATION OF ENZYME ACTIVITY BY MASS SPECTROMETRY USING IMMOBILIZED SUBSTRATES” (LUDWIG INSTITUTE FOR CANCER RESEARCH LTD., priority 2008, published 2011)
For at least one compound, name, drawing or mass did not settle the structure.

Tested on: PI3K signalling activity
Assay: Kinase reaction on immobilized BAD with lysates of serum-stimulated NIH-3T3 cells pre-treated or not with inhibitors, LC-MS readout
Type: cell-based
Conditions: starved NIH-3T3 cells pre-treated with inhibitor, 10% fetal calf serum 5 minutes before lysis
Method: Starved NIH-3T3 cells, pre-treated or not with the inhibitors Wortmannin (WM) or PD98059 (PD), were stimulated with 10% fetal calf serum for 5 minutes prior to cell lysis. Cell lysates were mixed with immobilized BAD and ATP/Mg^2+ and reactions allowed to occur at 37° C. for the indicated times. Reactions were stopped and beads washed to remove lysate components and to buffer exchange to 50 mM ammonium bicarbonate. Immobilized phosphorylated BAD was digested with trypsin and resultant peptides analysed by LC-MS and LC-MS/MS.
Mass spectrometry was used to multiplex the measurement of protein kinase activities, using BAD as a substrate for in vitro reactions. BAD is a known substrate of the protein kinase AKT/PKB, which is downstream of PI3K and upstream mTORC1. Mouse His-Tag-BAD protein was immobilized to SEPHAROSE® beads. In subsequent experiments, human proteins were synthesised with N-terminal GST and His tags separated by a PreScission protease cleavage site. Purification was performed with glutathione S-sepharose chromatography. […]
Starved NIH-3T3 cells, pre-treated or not with the inhibitors WM or PD, were stimulated with 10% fetal calf serum for 5 minutes prior to cell lysis. […] Immobilised phosphorylated BAD was digested with trypsin and resultant peptides analysed by LC-MS and LC-MS/MS. […]

For COC[C@H]1OC(=O)c2coc3c2[C@@]1(C)C1=C(C3=O)[C@@H]2CCC(=O)[C@@]2(C)C[C@H]1OC(C)=O [wortmannin, Wortmannin], the “kinase activity towards BAD pS136 (SEQ ID NO: 4)” value was “sensitive” and the “kinase activity towards BAD pS170 (SEQ ID NO: 3)” value was “sensitive”.
